Values joined by “and” are separate entries in the source; they are usually repeats but may differ in a detail not shown here. Identical values can stand only once. This continues a long series; more values of the same kind are listed elsewhere.
Test: Ocular tissue concentrations (aqueous humor, vitreous humor, iris, retina, choroid, cornea) after topical ocular, subcutaneous and intravitreal administration
Format: in vivo, New Zealand White rabbits
Conditions: for Conc. (ng/mL) OD / Conc. (ng/g) OD: right eye; for Conc. (ng/mL) OD / Conc. (ng/mL) OS / Conc. (ng/g) OS / Conc. (ng/g) OD: intravitreal 2.5 mg/eye (group 5), individual animals; for Conc. (ng/mL) OS / Conc. (ng/g) OS: left eye; for Iris Conc. (ng/g) OD / Iris Conc. (ng/g) OS / Conc. (ng/g) OS / Conc. (ng/g) OD: Iris
Protocol: To measure the concentration of Compound 1 in plasma and ocular tissues following topical ocular, subcutaneous, and intravitreal administration, New Zealand White rabbits were administered Compound 1, and plasma and ocular samples were collected at pre-determined time points. Compound 1 formulations were prepared fresh on each day of dosing.
Ocular tissue samples from both eyes of each animal were collected and weights were recorded. Plasma and ocular tissue sample concentrations of Compound 1 were determined by LC-MS/MS.
New Zealand White rabbits weighing 2.5 to 3.5 kg were used on this study. Rabbits were housed one per cage. Animals were not fasted and only healthy animals with no ocular illness were used. Two rabbits per group were sacrificed at each of four ocular tissue sampling time points for a total of eight rabbits per group.
Animals were anesthetized for ocular (topical) and intravitreal dosing following the 12IA7 IACUC protocol. Each rabbit received a bolus dose of test formulation either via topical ocular administration 3 times daily on Days 1 and 2 (at 0, 6, and 12 hours), and once on Day 3 (at 0 hours) into both eyes; via intravitreal administration into both eyes once on Day 1 (at 0 hours); or via subcutaneous administration 2 times daily on Days 1 and 2 (at 0 and 8 hours) and once daily on Day 3 (at 0 hours). Doses were given within an approximately 1 hour window each day where applicable.
On Day 1, for intravitreal administration, or on Day 3, for topical ocular and subcutaneous administration, at the appropriate ocular tissue collection time points, animals were euthanized and both eyes were enucleated immediately. Following enucleation, each eye was rinsed with phosphate-buffered saline. Ocular tissue samples from both eyes of each animal were collected at predetermined time points and weights were recorded. All the samples were frozen immediately on dry ice, and stored at −60° C. to −80° C. pending bioanalysis.
An LC-MS/MS method was developed for the determination of Compound 1 in rabbit aqueous tissues (plasma, aqueous and vitreous humor) and solid ocular tissue samples. A pre-study standard curve was analyzed to determine the specificity, range, and lower limit of quantitation of the method. Plasma and tissue homogenate study samples were extracted and analyzed. All the samples were treated identically to the standards.
One eight-point standard curve was used in each analytical batch. To be accepted, each batch must have had at least five of eight standards with accuracy within ±20% of nominal, except at the lower limit of quantification (LLOQ), where ±25% was acceptable.
Concentration versus time data is plotted in FIGS. 3-16. All data are expressed as ng/g of the free drug. Samples that were below the limit of quantitation (0.2 ng/mL) were not used in the calculation of averages.

COC(=O)N[C@@H](Cc1ccccc1)C(=O)N[C@@H](Cc1ccc(NS(=O)(=O)O)cc1)c1csc(-c2cccs2)n1 [Compound 1]
Conc. (ng/mL) OD (Iris homogenate, 6.0 hr): 32100 ng/mL | Iris Conc. (ng/mL) OD (Iris homogenate, 24 hr, sodium salt, intravitreal 2.5 mg/eye, Group 4): 11000 ng/mL | Conc. (ng/mL) OS (Iris homogenate, 24 hr): 8200 ng/mL | Conc. (ng/mL) OD (Iris homogenate, 24 hr): 11000 ng/mL | Iris Conc. (ng/mL) OD (Iris homogenate, 48 hr, sodium salt, intravitreal 2.5 mg/eye, Group 4): 1820 ng/mL | Iris Conc. (ng/mL) OS (Iris homogenate, 48 hr, OS, sodium salt, intravitreal 2.5 mg/eye, Group 4): 2780 ng/mL | Conc. (ng/mL) OS (Iris homogenate, 48 hr): 2030 ng/mL | Conc. (ng/mL) OD (Iris homogenate, 48 hr): 1110 ng/mL | Iris Conc. (ng/mL) OD (Iris homogenate, 72 hr, sodium salt, intravitreal 2.5 mg/eye, Group 4): 110 ng/mL | Conc. (ng/mL) OS (Iris homogenate, 72 hr): 1320 ng/mL | Conc. (ng/mL) OD (Iris homogenate, 72 hr): 351 ng/mL | Iris Conc. (ng/g) OD (0.5 hr, sodium salt, subcutaneous 5 mg/kg/dose, Group 2): 454 ng/g | Iris Conc. (ng/g) OS (0.5 hr, OS, free acid, subcutaneous 5 mg/kg/dose, Group 3): 38.9 ng/g | Iris Conc. (ng/g) OD (1 hr, sodium salt, subcutaneous 5 mg/kg/dose, Group 2): 99.2 ng/g | Iris Conc. (ng/g) OS (1 hr, OS, free acid, subcutaneous 5 mg/kg/dose, Group 3): 34.3 ng/g | Iris Conc. (ng/g) OS (1 hr, OS, sodium salt, subcutaneous 5 mg/kg/dose, Group 2): 56.4 ng/g | Iris Conc. (ng/g) OD (2 hr, free acid, subcutaneous 5 mg/kg/dose, Group 3): 32.0 ng/g | Iris Conc. (ng/g) OD (4 hr, free acid, subcutaneous 5 mg/kg/dose, Group 3): 17.9 ng/g | Iris Conc. (ng/g) OS (4 hr, OS, free acid, subcutaneous 5 mg/kg/dose, Group 3): 8.73 ng/g | Iris Conc. (ng/g) OD (6.0 hr, sodium salt, intravitreal 2.5 mg/eye, Group 4): 305800 ng/g | Iris Conc. (ng/g) OS (6.0 hr, OS, sodium salt, intravitreal 2.5 mg/eye, Group 4): 336600 ng/g | Conc. (ng/g) OS (6.0 hr): 134200 ng/g | Conc. (ng/g) OD (6.0 hr): 353100 ng/g | Iris Conc. (ng/g) OD (24 hr, sodium salt, intravitreal 2.5 mg/eye, Group 4): 121000 ng/g | Conc. (ng/g) OS (24 hr): 90200 ng/g | Conc. (ng/g) OD (24 hr): 121000 ng/g | Iris Conc. (ng/g) OD (48 hr, sodium salt, intravitreal 2.5 mg/eye, Group 4): 20020 ng/g | Iris Conc. (ng/g) OS (48 hr, OS, sodium salt, intravitreal 2.5 mg/eye, Group 4): 30580 ng/g | Conc. (ng/g) OS (48 hr): 22330 ng/g | Conc. (ng/g) OD (48 hr): 12210 ng/g | Iris Conc. (ng/g) OD (72 hr, sodium salt, intravitreal 2.5 mg/eye, Group 4): 1210 ng/g | Conc. (ng/g) OS (72 hr): 14520 ng/g | Conc. (ng/g) OD (72 hr): 3861 ng/g | Retina Conc. (ng/mL) OD (Retina homogenate, 0.5 hr, sodium salt, subcutaneous 5 mg/kg/dose, Group 2): 3.17 ng/mL | Retina Conc. (ng/mL) OS (Retina homogenate, 0.5 hr, OS, sodium salt, subcutaneous 5 mg/kg/dose, Group 2): 4.43 ng/mL | Retina Conc. (ng/mL) OD (Retina homogenate, 1 hr, sodium salt, subcutaneous 5 mg/kg/dose, Group 2): 1.66 ng/mL | Retina Conc. (ng/mL) OS (Retina homogenate, 1 hr, OS, free acid, subcutaneous 5 mg/kg/dose, Group 3): 1.21 ng/mL | Retina Conc. (ng/mL) OS (Retina homogenate, 1 hr, OS, sodium salt, subcutaneous 5 mg/kg/dose, Group 2): 4.22 ng/mL | Conc. (ng/mL) OS (Retina homogenate, 6.0 hr): 120000 ng/mL | Conc. (ng/mL) OD (Retina homogenate, 6.0 hr): 146000 ng/mL and 303000 ng/mL | Retina Conc. (ng/mL) OD (Retina homogenate, 24 hr, sodium salt, intravitreal 2.5 mg/eye, Group 4): 35200 ng/mL | Conc. (ng/mL) OS (Retina homogenate, 24 hr): 98900 ng/mL and 198000 ng/mL | Conc. (ng/mL) OD (Retina homogenate, 24 hr): 145000 ng/mL | Retina Conc. (ng/mL) OD (Retina homogenate, 48 hr, sodium salt, intravitreal 2.5 mg/eye, Group 4): 7360 ng/mL | Retina Conc. (ng/mL) OS (Retina homogenate, 48 hr, OS, sodium salt, intravitreal 2.5 mg/eye, Group 4): 6530 ng/mL | Conc. (ng/mL) OS (Retina homogenate, 48 hr): 14000 ng/mL and 101000 ng/mL | Conc. (ng/mL) OD (Retina homogenate, 48 hr): 65500 ng/mL | Retina Conc. (ng/mL) OD (Retina homogenate, 72 hr, sodium salt, intravitreal 2.5 mg/eye, Group 4): 598 ng/mL | Retina Conc. (ng/mL) OS (Retina homogenate, 72 hr, OS, sodium salt, intravitreal 2.5 mg/eye, Group 4): 484 ng/mL

Source: US11666558B2, “Methods of treating intraocular pressure with activators of Tie-2” (EyePoint Pharmaceuticals, Inc., priority 2015, dated 2023)
